At least one structure is not confirmed: it was looked up by name or label, or the drawing left a doubt.
Experiments:
5-lipoxygenase = target: T1, 5-lipoxygenase (Rattus norvegicus, UniProt P12527); assay: Inhibition of 5-lipoxygenase, in vitro (5-HETE formation, RBL-1 homogenate supernatant); format: biochemical
T1 construct: The 100,000×g supernatant fraction of Rat Basophilic Leukemia Cell Homogenate (RBL-1); endogenous in cells; host or cells: RBL-1 (rat basophilic leukemia) cells, 100,000xg supernatant of homogenate
T1 sequence (P12527 1-673): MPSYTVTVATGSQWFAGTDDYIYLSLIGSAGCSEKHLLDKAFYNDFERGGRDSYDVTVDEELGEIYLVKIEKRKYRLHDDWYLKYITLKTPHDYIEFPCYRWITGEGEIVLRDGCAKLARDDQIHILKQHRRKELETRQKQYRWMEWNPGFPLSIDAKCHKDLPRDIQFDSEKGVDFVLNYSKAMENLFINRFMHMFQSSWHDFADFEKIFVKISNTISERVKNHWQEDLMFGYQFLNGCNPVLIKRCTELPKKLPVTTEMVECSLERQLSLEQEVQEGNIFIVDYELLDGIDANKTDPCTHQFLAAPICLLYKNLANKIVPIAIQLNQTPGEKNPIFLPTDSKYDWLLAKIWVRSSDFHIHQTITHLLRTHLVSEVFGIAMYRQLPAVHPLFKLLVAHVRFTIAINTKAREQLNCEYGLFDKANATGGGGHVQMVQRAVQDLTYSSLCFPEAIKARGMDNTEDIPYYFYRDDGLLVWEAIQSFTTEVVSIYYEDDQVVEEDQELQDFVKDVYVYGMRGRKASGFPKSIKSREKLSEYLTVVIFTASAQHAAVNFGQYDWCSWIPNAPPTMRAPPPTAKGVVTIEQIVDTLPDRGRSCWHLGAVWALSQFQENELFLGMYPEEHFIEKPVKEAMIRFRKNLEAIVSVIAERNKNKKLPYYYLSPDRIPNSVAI
Description: The compounds of the invention are evaluated with respect to 5-lipoxygenaseinhibition according to the following assay procedure.
Inhibition of 5-lipoxygenase, in vitro:
The 100,000×g supernatant fraction of Rat Basophilic Leukemia Cell Homogenate (RBL-1) serves as a 5-lipoxygenase enzyme source. The enzyme is incubated with [1-^4 C)-arachidonic acid and Ca++ in the presence and absence of test compound. The product of 5-lipoxygenase, 5-hydroxyeicosatetraenoic acid (5-HETE), is separated by thin-layer chromatography and measured by radioactivity. A compound inhibiting 5-HETE synthesis by 30% or more is considered active at that concentration.
For comparison the compound of Formula XX, a known 5-lipoxygenase inhibitor described in U.S. Pat. No. 4,755,524 was used: [drawing 29] (±)[2S*-[[3,5-bis(1,1-dimethylethyl)-4-hydroxyphenyl]thio]-1R*-methylpro poxy]acetic acid.

[1] = system: Human neutrophil superoxide generation; assay: Human neutrophil superoxide generation, FMLP-induced; format: cell-based
Description: The compounds of the present invention are evaluated with respect to superoxide modulating activity according to the following assay procedure:
Human neutrophil superoxide generation:
Superoxide generation by formyl-methionyl-leucyl-phenylalanine (FMLP)-stimulated neutrophils was quantitated by the reduction of cytochrome C (Badwey, J. A., Curnutte, J. T. and Karnovsky, M. L., cis-Polyunsaturated fatty acids induce high levels of superoxide production by human neutrophils. J. BIOL. CHEM. 256: 12640-12643, 1981, which is incorporated herein by reference.) To 5 million neutrophils in 2.85 ml of Krebs-Ringer phosphate buffer, pH 7.2, 50 ul of inhibitor (in 10% DMSO/buffer), and 50 ul ferricytochrome C (5 mM, stock) were added and preincubated for 3 minutes at 37° C. Absorption measurements at 550 nm were recorded at start of preincubation. Fifty ul FMLP (6 uM, stock) was added to initiate reaction. A plateau was reached within 3 minutes and this reading minus the initial reading (before addition of FMLP) was used to calculate nanomoles of superoxide generated based on a molar extinction coefficient of 2.1×10^4 cm^-1 mole^-1.
Isolation of human neutrophils:
Human neutrophils were isolated from freshly drawn blood of healthy donors. […] The red cell lysing procedure was repeated, the cells suspended in appropriate buffer (depending on assay) and counted.

CN(CCc1ccccn1)C(=O)CS[C@@H]1CCCC[C@H]1Sc1cc(C(C)(C)C)cc(C(C)(C)C)c1 (relative stereo) [Example 16, trans-2-[[2-[[3,5-bis(1,1-dimethylethyl)phenyl]thio]cyclohexyl]thio]-N-methyl-N-(2-pyridinylethyl)acetamide]
5-lipoxygenase inhibition (in words) (5-lipoxygenase): inhibited 5-lipoxygenase | superoxide generation (in words) [1]: stimulated superoxide generation

— patent US5476944A, “Derivatives of cyclic phenolic thioethers” (G. D. Searle & Co., priority 1994, dated 1995)
